We go through 42 sequences from article PMC7819943, “Rice protein-binding microarrays: a tool to detect cis-acting elements near promoter regions in rice”.

Sequences of proteins named here, by UniProt entry; tags and fusion partners are left off.
UniProt Q0JBA9, entry or part of it: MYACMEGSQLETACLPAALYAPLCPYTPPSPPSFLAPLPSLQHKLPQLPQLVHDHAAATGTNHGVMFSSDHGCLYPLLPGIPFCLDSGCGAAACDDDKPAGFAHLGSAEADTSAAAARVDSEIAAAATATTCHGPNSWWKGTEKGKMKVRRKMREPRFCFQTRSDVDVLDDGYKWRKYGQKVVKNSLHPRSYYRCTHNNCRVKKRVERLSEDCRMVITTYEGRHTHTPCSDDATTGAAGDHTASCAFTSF

The other results are listed elsewhere or left out.

The target in this assay is OsWRKY34 (Oryza sativa, UniProt Q0JBA9 1-250). The assay is described as follows: protein-binding microarray (RPBM); PBS, 2% BSA, 51.3 ng/ul salmon testes DNA, 50 uM zinc acetate, 200 nM TF, 25 C, 1 h; high values mean tight binding. Particulars: protein: recombinant; tags: N-terminal polyhistidine and DsRed monomer fusion (pET32a); label: CyDye5-dUTP incorporated in the synthesized complementary strand; 3' TTTTT single-stranded linker to array surface; dsDNA, one strand shown. A digest of the protocol: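 Transcription factors were made in E. coli BL21-CodonPlus as N-terminal fusions to a polyhistidine tag and DsRed, then purified on Ni–NTA. After primer extension with Cy5-dUTP and blocking with 2% BSA, a custom Agilent array was exposed for 1 h at 25 °C to 200 nM protein in PBS, 2% BSA, salmon testes DNA and 50 µM zinc acetate. Washed arrays were scanned on an Axon 4000B, and the binding signal is per-feature fluorescence intensity in arbitrary units.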
Turning to “TTTACAATGGTATCTATGTGTTGTTTTTGTGTGTGTGTGTCGGAGTCACCTAGTGCAG”, the binding signal is 10100 fluorescence intensity (a.u.).
As for “GGATGCTTTTGCTGTGCCGGCGCCGCGTGGTTCTTCGTTTCGGAGTCACCTAGTGCAG”, the figure is 9030 fluorescence intensity (a.u.); as for “AATCTACACCCCTAAACCTTTCTATGACGTTACAACGCACCGGAGTCACCTAGTGCAG”, 9050 fluorescence intensity (a.u.); as for “ATCCATTTGACACACGAACACACACATACACTACACTCTCCGGAGTCACCTAGTGCAG”, 9640 fluorescence intensity (a.u.).
To “CTGGTATTTAAATCGCACGCGTTCCTCAGCCACCGCCCTCCGGAGTCACCTAGTGCAG” belongs 9750 fluorescence intensity (a.u.); to “CGGGTTTGATTTGATTTGATTTTGATTTTGATTTGCTTCTCGGAGTCACCTAGTGCAG”, 8190 fluorescence intensity (a.u.); to “GAAAACGGCGTCTGCCACGTGTACACCACTCCTCTGTCTACGGAGTCACCTAGTGCAG”, 9260 fluorescence intensity (a.u.).
To “CTAGGGCGTTAGAGGGCTCGGGAGGGCTCGGCGAGATGGGCGGAGTCACCTAGTGCAG” belongs 8960 fluorescence intensity (a.u.); to “TCTATATCTACTTAAGCCCCTTCATTCCCGCGTATTCTCCCGGAGTCACCTAGTGCAG”, 8120 fluorescence intensity (a.u.).
For “CGCGTGTTCTCTTCTCCTGGCTCGATTGCGTGTTGTAGATCGGAGTCACCTAGTGCAG”, the binding signal is 8500 fluorescence intensity (a.u.).
As for “CGCCACCGTCCTGCTCACCGGCGTTCCGCCGGAACGACTTCGGAGTCACCTAGTGCAG”, the figure is 9640 fluorescence intensity (a.u.).
In the case of “CATGACCAAGGTTCGTTATTATCCCTCTTTTCACATTTGTCGGAGTCACCTAGTGCAG”, the binding signal was 8260 fluorescence intensity (a.u.).
To “CAGGGGCATTTCCGTCCAGGATGGTATTTTGGCGAAGACACGGAGTCACCTAGTGCAG” belongs 8260 fluorescence intensity (a.u.); to “ACCTCCGCCTCGTCGCCCGCTTCGCCCATCGCCATCGCGCCGGAGTCACCTAGTGCAG”, 8670 fluorescence intensity (a.u.).
Turning to “GTTTATTTTAGGACATTGTAATAGGTGGTTGATTTATTTTCGGAGTCACCTAGTGCAG”, the binding signal was 8380 fluorescence intensity (a.u.).
As for “ACCTGTATCATCATTAGCTGTATTCTGCCAAGTTCATAAACGGAGTCACCTAGTGCAG”, the figure is 8950 fluorescence intensity (a.u.).
For the sequence “CGGCTGGGTGGTGGTCTTCTTCTTCTGCTGCTGCTGCCGCCGGAGTCACCTAGTGCAG”, the binding signal was 9350 fluorescence intensity (a.u.).
As for “AGAGAGAGAGAGCGGACTTCACCGCATCGGTCAACGGGTACGGAGTCACCTAGTGCAG”, the figure is 8710 fluorescence intensity (a.u.); as for “TTCAGCAGCACCCACCTTCCCGATGTTTCTTGCCAACTTTCGGAGTCACCTAGTGCAG”, 11300 fluorescence intensity (a.u.); as for “GCCTATATGACGGTGTTGACTCGGTCTTCGTCCCACGTGTCGGAGTCACCTAGTGCAG”, 10000 fluorescence intensity (a.u.).
Regarding “CTCTTCACCACTTAGTGCTTTTTAAATTTCATCCTTTTCACGGAGTCACCTAGTGCAG”, the binding signal was 8140 fluorescence intensity (a.u.).
To “AGTTCATCTTGGTATCTTATGCTAGCTAGTCTTCCAAGCTCGGAGTCACCTAGTGCAG” belongs 8940 fluorescence intensity (a.u.); to “ACACAGCCACACACCAACATGCCCTTCAGGTCTTCACACTCGGAGTCACCTAGTGCAG”, 9550 fluorescence intensity (a.u.).
To “AATGTGGGTATGCCAACCAAATAACCTCTAAGTTTGACCACGGAGTCACCTAGTGCAG” belongs 8390 fluorescence intensity (a.u.); to “GCTGTGTTTGTTTTGGGTGGTTGGGAACAAAACTCCTCCGCGGAGTCACCTAGTGCAG”, 9070 fluorescence intensity (a.u.); to “TCTTCTTCTTCTCCACGTCCCCGGCCTCTCTTCTCGCTCTCGGAGTCACCTAGTGCAG”, 9870 fluorescence intensity (a.u.).
With “GCCAGCTGCCTCCTCCGATCTCTCTCTCACTCTCACACACCGGAGTCACCTAGTGCAG”, the binding signal is 9690 fluorescence intensity (a.u.).
To “TAATGGAAGTGGTTTACGTCGCTTCTGTCAATAAACACACCGGAGTCACCTAGTGCAG” belongs 48400 fluorescence intensity (a.u.); to “CTCTCTCTTCAATCCTTCATCCTCTTCCTCAGGTGAGATGCGGAGTCACCTAGTGCAG”, 8300 fluorescence intensity (a.u.); to “CTCCCTGCATCGACATGGCCATACTCTCCAACATCTTCTACGGAGTCACCTAGTGCAG”, 10800 fluorescence intensity (a.u.).
As for “CTCAGTTCTTTCGCCGTGTTTAGTTACAAATTTTTTATTTCGGAGTCACCTAGTGCAG”, the figure is 12700 fluorescence intensity (a.u.); as for “CGTACTATTAACGTGCAACTTTTTTGTCTTTGTACTACCTCGGAGTCACCTAGTGCAG”, 9620 fluorescence intensity (a.u.).
To “AGACCACCTCGCTGCCTCTGCTCTGCTCAGTGCTGCTCACCGGAGTCACCTAGTGCAG” belongs 8750 fluorescence intensity (a.u.).
With “GCCAATCGCTCCAATTCTCCCGCGCGCGCGCCACTGCCACCGGAGTCACCTAGTGCAG”, the binding signal was 8130 fluorescence intensity (a.u.).
With “CTCGTTCATTTTCTGAATTCTACAACTACGTATTCTCAGACGGAGTCACCTAGTGCAG”, the binding signal was 9250 fluorescence intensity (a.u.).
To “TGAGATGGCCCTGCCAACATATTCCAGCCCAGCTCAGTCCCGGAGTCACCTAGTGCAG” belongs 8110 fluorescence intensity (a.u.); to “TTGGCGCGATAGGGATTGGGGAGGCGTTGAGGTGGGGAGACGGAGTCACCTAGTGCAG”, 12300 fluorescence intensity (a.u.); to “TTGTTGATCATGATTTTCTTTTGGCTATTTGATTTTTTGACGGAGTCACCTAGTGCAG”, 8160 fluorescence intensity (a.u.).
As for “AGCTTGTTTATCATGTTTATCGTTTAAAGCTTGTTTTTCGCGGAGTCACCTAGTGCAG”, the figure is 8790 fluorescence intensity (a.u.); as for “GGGCTTGTGAACCGGGAGGCGAGGGGAGGGTTATGAGAGTCGGAGTCACCTAGTGCAG”, 13900 fluorescence intensity (a.u.).
Regarding “TTGTGTGGTTGTATCTAGGCCCTTGTTCCACTGTACGTCTCGGAGTCACCTAGTGCAG”, the binding signal was 11600 fluorescence intensity (a.u.).
As for “CCTGGTCCCTCTTGTCTTGTTTGCATGGTTTGTTGAACGACGGAGTCACCTAGTGCAG”, the figure is 8490 fluorescence intensity (a.u.).
